Consider one molecule from patent US20220411495A1, “POSITIVE ALLOSTERIC MODULATORS OF THE CALCIUM-SENSING RECEPTOR” (VIB VZW, priority 2019, published 2022).

No constants are given. Whether binding was seen depends on the method and setting. Some binding calls cover weakened binding; strength is not graded here.

Assay [1] concerns the target T1, isolated purified extracellular 'Venus flytrap domain' of CaSR (UniProt P41180).
T1 sequence (looked up): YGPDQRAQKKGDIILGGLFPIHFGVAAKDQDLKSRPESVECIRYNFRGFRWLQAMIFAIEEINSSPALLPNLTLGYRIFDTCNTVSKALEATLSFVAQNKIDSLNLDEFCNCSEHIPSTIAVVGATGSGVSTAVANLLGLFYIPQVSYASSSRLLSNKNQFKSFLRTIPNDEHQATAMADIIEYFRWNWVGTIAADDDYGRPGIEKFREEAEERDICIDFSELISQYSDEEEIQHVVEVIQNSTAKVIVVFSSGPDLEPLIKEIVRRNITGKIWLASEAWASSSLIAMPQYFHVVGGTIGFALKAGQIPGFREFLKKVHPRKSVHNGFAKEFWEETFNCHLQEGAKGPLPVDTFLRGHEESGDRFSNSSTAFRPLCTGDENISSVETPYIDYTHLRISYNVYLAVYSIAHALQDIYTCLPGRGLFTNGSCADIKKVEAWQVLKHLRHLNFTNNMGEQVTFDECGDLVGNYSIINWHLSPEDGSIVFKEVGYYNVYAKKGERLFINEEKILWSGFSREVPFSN
In words: surface plasmon resonance. (In general: In SPR one partner is held on a chip, and binding of the other changes the refractive index at the surface.)

The target in assay [2] is T1, isolated purified extracellular 'Venus flytrap domain' of CaSR. In words: surface plasmon resonance (added at time 0, washed away at 120 sec).

B1: CaSR Nb4 (VHH)
VHH: QVQLVESGGGLVQAGGSLRLSCAASGRTFSTYRMGWFRQGLGKEREFVAAITANGVRTFYTDSVKGRFTISRDNAKNTLYLQMNSLQPDDTAVYLCAARRKGIFTVQQAQDITDWDYWGQGTQVTVSS
In the case of B1, the binding entry in assay [1] and in assay [2] was “binds” throughout.
